Data on 3 substances can be found in PMC12501277, “The deubiquitylase OTUB1 drives gemcitabine resistance in pancreatic cancer by enhancing pyrimidine metabolism through modulating DHODH mRNA stability” (Cell Death & Disease, 2025).

Protein sequences, listed by entry. Tags and fused reporters are not part of them. Lines headed by an entry give the natural chain unless they say otherwise; changes in a name come on top.
UniProt Q96FW1: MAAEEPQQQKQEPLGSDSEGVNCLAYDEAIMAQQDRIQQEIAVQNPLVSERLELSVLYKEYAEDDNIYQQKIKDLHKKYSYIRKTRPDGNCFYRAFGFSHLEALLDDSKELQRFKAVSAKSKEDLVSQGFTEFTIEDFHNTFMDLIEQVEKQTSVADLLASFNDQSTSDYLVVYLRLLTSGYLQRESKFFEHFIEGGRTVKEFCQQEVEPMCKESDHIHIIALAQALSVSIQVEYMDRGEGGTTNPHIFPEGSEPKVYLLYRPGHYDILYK
UniProt O00571: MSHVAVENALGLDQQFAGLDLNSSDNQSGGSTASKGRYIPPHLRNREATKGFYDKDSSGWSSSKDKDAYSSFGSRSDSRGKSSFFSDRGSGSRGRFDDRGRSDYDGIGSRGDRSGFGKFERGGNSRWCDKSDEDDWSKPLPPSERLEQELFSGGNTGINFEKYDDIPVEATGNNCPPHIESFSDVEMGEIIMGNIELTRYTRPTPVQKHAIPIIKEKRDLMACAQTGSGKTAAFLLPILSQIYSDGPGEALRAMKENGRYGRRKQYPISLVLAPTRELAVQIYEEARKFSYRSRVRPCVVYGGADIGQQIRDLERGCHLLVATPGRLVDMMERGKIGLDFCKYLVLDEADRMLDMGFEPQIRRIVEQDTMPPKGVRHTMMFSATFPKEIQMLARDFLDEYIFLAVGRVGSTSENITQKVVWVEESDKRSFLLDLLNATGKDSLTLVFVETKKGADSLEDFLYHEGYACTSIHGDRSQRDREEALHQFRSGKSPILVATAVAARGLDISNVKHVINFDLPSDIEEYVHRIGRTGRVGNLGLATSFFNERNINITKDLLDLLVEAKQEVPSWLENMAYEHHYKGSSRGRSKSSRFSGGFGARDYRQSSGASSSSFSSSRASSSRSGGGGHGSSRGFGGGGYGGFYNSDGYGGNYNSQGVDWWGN

These are yes or no findings as the source states them, for the method shown. Binding seen in cells or lysates may run through a third protein. Some binding calls cover weakened binding; strength is not graded here.

The target of assay [1] is OTUB1 (human (endogenous in AsPC-1)) (UniProt Q96FW1). As to the kind of experiment: co-IP; endogenous proteins; AsPC-1 cell lysates with antibody to OTUB1, DDX3X or IgG control and protein A/G-Sepharose beads, western blot. On the technique in general: In western blotting, separated proteins are transferred to a membrane and probed.
Assay [2] has as its target Flag-OTUB1 (human) (UniProt Q96FW1). Nature of the assay: co-IP; HEK-293T cells transfected with Flag-OTUB1 and HA-DDX3X (FL or indicated mutant construct); total cell lysates, IP-western blot.

For the substance “DEAD-box helicase 3 X-linked (DDX3X) (from UniProt O00571 1-662)”, in assay [1], the binding entry is “binds”.

Turning to “HA-DDX3X (FL) (from UniProt O00571 1-662)”, in assay [2], the binding result is given as “binds”.

In the case of “HA-DDX3X N-terminal region (aa 1-413) (from UniProt O00571 1-413) (domain or fragment)”, in assay [2], the binding result is listed as “binds”.
